Test results published in the supplement of paper PMC4635364.
Where a name gives a salt, the structure may show the parent alone. The list shows a part of the results. This data set is noisy: repeats of one test often differ as much as different tests do.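 Human fetal ventral-midbrain neural progenitor line ReNCell VM, differentiated without mitogens. Images stained for doublecortin (early neurons) or tyrosine hydroxylase (dopaminergic neurons) were scored by blinded raters against untreated wells (0 = no change). Repeats and both raters were averaged, and compounds averaging 2 or higher were picked as hits for retesting.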

tested on: ReNCell VM; assay: dopaminergic neuron differentiation score (TH+ cell fraction vs untreated, manual image score) (score (0 to 3)); higher = more TH+ dopaminergic neuron differentiation; details: library: Spectrum; 2 uM; 4 weeks; BDNF 10 ng/ml + GDNF 10 ng/ml

Dopaminergic neuron differentiation score, inactive:
CC[C@H]1OC(=O)[C@H](C)[C@@H](O[C@H]2C[C@@](C)(OC)[C@@H](O)[C@H](C)O2)[C@H](C)[C@@H](O[C@@H]2O[C@H](C)C[C@H](N(C)C)[C@H]2O)[C@](C)(O)C[C@@H](C)C(=O)[C@H](C)[C@@H](O)[C@]1(C)O 0
Cc1cccc(N(C)C(=S)Oc2ccc3ccccc3c2)c1 0
CC(=O)N[C@@H](CC(=O)N[C@@H](CCC(=O)O)C(=O)O)C(=O)O 0
CC1(C)CC2C1CC[C@]1(C)CCC3C(C(=O)O)CC(=O)O[C@@]32C1 (stereo not given in full) [3-HYDROXY-4-(SUCCIN-2-YL)-CARYOLANE delta-LACTONE] 0

same assay, conditions: library: Tocriscreen; 2 uM; 4 weeks; BDNF 10 ng/ml + GDNF 10 ng/ml

Dopaminergic neuron differentiation score, inactive:
CC1=C(/C=C/C(=C/C=C/C(C)=C/C(=O)O)c2ccc(C)cc2)C(C)(C)CCC1 0
Nc1ccc(-c2cccc3c(=O)cc(N4CCOCC4)oc23)cc1 0
CC(=O)N(O)[C@@H]1c2cc(C#N)ccc2OC(C)(C)[C@H]1O 0
O=c1oc(-c2ccc(C(F)(F)F)cc2)nn1Cc1cc(Cl)ccc1O 0
COc1ccc(CN(CCN(C)C)c2ccccn2)cc1 [Mepyramine maleate] 0
c1ccc(N2CCN(CCCOc3ccc4c(c3)OCO4)CC2)cc1 [BP 554 maleate] 0
Cc1cc(C)c(S(=O)(=O)Nc2ccccc2C(F)(F)F)c(C)c1 0
CCCCN1CCC(CCC(=O)c2cc(Cl)c(N)cc2OC)CC1 0
Cc1nc2sccn2c(=O)c1CCN1CCC(=C(c2ccccc2)c2ccc(F)cc2)CC1 0
CC1(C)C[C@@H]1C(=O)N/C(=C\CCCCSC[C@H](N)C(=O)O)C(=O)O [Cilastatin sodium] 0
Oc1ccc(-c2c(-c3ccccc3)nn3c(C(F)(F)F)cc(C(F)(F)F)nc23)cc1 0

4 structures out of the list, sorted by molecular weight, rising:
Dopaminergic neuron differentiation score, inactive:
Cc1cc(C)c(S(=O)(=O)Nc2ccccc2C(F)(F)F)c(C)c1 0
CCCCN1CCC(CCC(=O)c2cc(Cl)c(N)cc2OC)CC1 0
O=c1oc(-c2ccc(C(F)(F)F)cc2)nn1Cc1cc(Cl)ccc1O 0
Oc1ccc(-c2c(-c3ccccc3)nn3c(C(F)(F)F)cc(C(F)(F)F)nc23)cc1 0
